# Measured values reported in the supplement of paper PMC12542422.
# ± gives the standard deviation of the averaged measurements. Some of the results follow. These are raw signals, not scaled to a control.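 Across three biological replicates, HeLa cells were imaged for ribosome assembly using ENP1 staining (export block present or absent) or inducible tagged ribosomal protein reporters. Machine learning classified each cell's signal localization relative to DMSO controls. Hits exceeded the DMSO false-positive mean by five standard deviations and were then visually confirmed.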
# Test system: HeLa RPL29-GFP reporter
# Assay: fraction of reporter-positive cells with nuclear (nucleolar or nucleolar/nucleoplasmic) RPL29-GFP (MainHitrate); higher = more cells with nucleolar/nuclear readout signal (for ENP1 -LMB: less RNAPI inhibition; for +LMB ENP1 and RP reporters: stronger nuclear/nucleolar retention, i.e. ribosome biogenesis defect)
# Details: concentration: 1 µM; treatment time: 6 h
row,SMILES,fraction of reporter-positive cells with nuclear
1,CC(C)N(CCC(C(N)=O)(c1ccccc1)c1ccccn1)C(C)C (stereo not drawn) [Disopyramide Phosphate],0.262 ± 0.27
2,CN(C)C(=O)Oc1cccc([N+](C)(C)C)c1 [Neostigmine bromide (Prostigmin)],0.245 ± 0.076
3,C[N+]1(C)CCOC(O)(c2ccc(-c3ccc(C4(O)C[N+](C)(C)CCO4)cc3)cc2)C1 (stereo not drawn) [Hemicholinium Bromide],0.289 ± 0.21
